# Experimental data from PubChem BioAssay (NCATS).
# Inconclusive means that the source gave no clear call. Such entries were picked first, then a sample of the others. Potencies beside an inconclusive call are fits to weak or partial responses and may not hold up. Activity calls are given as the source filed them. The call rests on the fitted dose curve; in most records, active means well fitted cell-killing curve with a large enough effect; inconclusive means small, poorly fitted or top-dose-only effect, or effect the other way; inactive means no such curve, though single readings can be large or run the other way. Where a SMILES comes first, the peptide text is derived from it. Residues, ends and D or L forms follow the SMILES beside them. [ ]: non-standard residue; d: D form. The star is where a group is joined. Sta = CC(C)C[C@H](N)[C@@H](O)CC(=O)O; Isovaleryl = CC(C)CC(=O)*
# Assay: Quantitative High-Throughput drug screen in 47 multiple myeloma cell lines against the NCATS MIPE library collection: KHM11_PLB cell viability assay (AID 1918962); further: nearly all actives have a fitted effect of over 35% in size
# Conditions: KHM11 myeloma cell viability, CellTiter-Glo ATP luminescence, 48 h; viability, % of DMSO control: at 45.8 µM (top of the series)
# In short: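 Relative luminescence from CellTiter-Glo served as the viability signal, referenced to DMSO-treated (100%) and cell-free medium (0%) controls. Treatment lasted 48 hours at 37C with 500 cells per well.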
# Potency means the concentration at half of the fitted maximal effect.
SMILES,"viability, % of DMSO control",Potency
CC(C)C1CCC(C(=O)N[C@H](Cc2ccccc2)C(=O)O)CC1 (some centres undefined),inactive: 72.4%,–
Cn1cnc2c1c(=O)[nH]c(=O)n2C,–,"inconclusive: 37.2 µM [cytotoxic, single point]"
Clc1ccc(C(Cn2ccnc2)OCc2ccsc2Cl)c(Cl)c1 (centres undefined),–,"inconclusive: 37.2 µM [cytotoxic, single point]"
CCC(=O)NC[C@H](Cc1ccc(OCCc2nc(-c3ccccc3)oc2C)cc1)NC(C)=CC(=O)c1ccc(C(F)(F)F)cc1,–,"inconclusive: 3.72 µM [rising, partial curve, poor fit]"
CCCCCCCCCCCC(CC1OC(=O)C1CCCCCC)OC(=O)C(CC(C)C)NC=O (centres undefined),inactive: 111%,–
CC1CC2C3CCC4=CC(=O)C=C[C@]4(C)[C@@]3(F)[C@@H](O)C[C@]2(C)[C@@]1(O)C(=O)CO (some centres undefined),–,active: 0.833 µM
Cn1cc(C=C2C(=O)Nc3cccnc32)c2ccccc21,–,"inconclusive: 37.2 µM [cytotoxic, single point]"
Nc1nc(OCc2ccccc2)c2[nH]cnc2n1,inactive: 75.4%,–
C=CCc1cc(OC)c(O)c(C(=O)NCCO)c1,inactive: 155%,–
COCCCOc1cc(C[C@@H](C[C@H](N)[C@@H](O)C[C@H](C(=O)NCC(C)(C)C(N)=O)C(C)C)C(C)C)ccc1OC,inactive: 151%,–
COC(=O)[C@H](Cc1ccccc1)NC(=O)[C@@H](N)CC(=O)O (H-Asp-Phe-OMe),inactive: 105%,–
O=C(C=Cc1cccnc1)NCCCCC1CCN(C(=O)c2ccccc2)CC1,–,active: 0.0235 µM
Cc1ncc([N+](=O)[O-])n1CCO,–,"inconclusive: 16.6 µM [rising, single point]"
CNS(=O)(=O)Cc1ccc2[nH]cc(CCN(C)C)c2c1,–,"inconclusive: 0.0033 µM [rising, full curve, poor fit]"
CC[C@H](NC(C)C)[C@H](O)c1ccc(O)c2[nH]c(=O)ccc12,–,"inconclusive: 18.7 µM [rising, partial curve, poor fit]"
CC(C)Nc1cc(C(F)(F)F)cc2nc(NC(=O)c3cccnc3)nn12,–,"inconclusive: 4.18 µM [cytotoxic, single point]"
CN[C@@H](C)[C@H]1[C@H](O)C[C@@]2(C)[C@@H]3CC[C@H]4C(C)(C)[C@@H](NC)CC[C@@]45C[C@@]35CC[C@]12C,–,"inconclusive: 0.0026 µM [rising, full curve, poor fit]"

# Sorted by count of non-hydrogen atoms (rising): some entries from above.
SMILES,"viability, % of DMSO control",Potency
Nc1nc(OCc2ccccc2)c2[nH]cnc2n1,inactive: 75.4%,–
CNS(=O)(=O)Cc1ccc2[nH]cc(CCN(C)C)c2c1,–,"inconclusive: 0.0033 µM [rising, full curve, poor fit]"
CCC(=O)NC[C@H](Cc1ccc(OCCc2nc(-c3ccccc3)oc2C)cc1)NC(C)=CC(=O)c1ccc(C(F)(F)F)cc1,–,"inconclusive: 3.72 µM [rising, partial curve, poor fit]"

# Following part

SMILES,"viability, % of DMSO control",Potency
CCn1cc(C(=O)O)c(=O)c2cc(F)c(N3CCNCC3)nc21,inactive: 83.7%,–
CC1COc2c(N3CCN(C)CC3)c(F)cc3c(=O)c(C(=O)O)cn1c23 (centres undefined),inactive: 148%,–
Cc1cccc(-c2nn(C(=S)Nc3ccccc3)cc2-c2ccnc3ccccc23)n1,–,"inconclusive: 0.0053 µM [rising, full curve, poor fit]"
O=C(O)c1ccc(-c2c[nH]c3ncc(-c4ccccc4)cc23)cc1C1CCCC1,–,"inconclusive: 0.833 µM [rising, partial curve, poor fit]"
CN1C(C(=O)Nc2ccccn2)=C(O)c2ccccc2S1(=O)=O,–,"inconclusive: 0.935 µM [rising, partial curve, poor fit]"
COC(=O)N1CCN(Cc2cccc(NC(=O)Nc3ccc(C)nc3)c2F)CC1,inactive: 88.7%,–
CC[C@H]1OC(=O)[C@H](C)[C@@H](O[C@H]2C[C@@](C)(OC)[C@@H](O)[C@H](C)O2)[C@H](C)[C@@H](O[C@@H]2O[C@H](C)C[C@H](N(C)C)[C@H]2O)[C@](C)(O)C[C@H](C)C(=NOCOCCOC)[C@H](C)[C@@H](O)[C@]1(C)O,inactive: 72.2%,–
CC1(C)CCC[C@@]2(C)[C@@H]1CC[C@@]1(C)OC(=O)C[C@H]21,inactive: 101%,–
COc1ncnc(NS(=O)(=O)c2ccc(N)cc2)c1OC,inactive: 129%,–
C[C@@]1(c2cc(-c3cncnc3)c(F)cc2F)CCSC(N)=N1,–,active: 3.32 µM
COc1ccc(Nc2nccc(NCCO)n2)cc1,inactive: 96.2%,–
c1ccc2c(-c3cnn4cc(-c5ccc(N6CCNCC6)cc5)cnc34)ccnc2c1,–,"inconclusive: 2.09 µM [cytotoxic, full curve, poor fit]"
Cc1ccc(O)c(C(CCN(C(C)C)C(C)C)c2ccccc2)c1 (centres undefined),–,"inconclusive: 0.148 µM [rising, partial curve]"
CCC[C@H](N[C@@H](C)C(=O)N1[C@@H]2CCCC[C@H]2C[C@H]1C(=O)O)C(=O)OCC,–,"inconclusive: 4.18 µM [cytotoxic, partial curve, poor fit]"
CC1(C)[C@H](C(=O)O)N2C(=O)C[C@H]2S1(=O)=O,–,inconclusive: 0.001 µM [cytotoxic]
CC(C)CC(=O)N[C@H](C(=O)N[C@H](C(=O)N[C@@H](CC(C)C)[C@@H](O)CC(=O)N[C@@H](C)C(=O)N[C@@H](CC(C)C)[C@@H](O)CC(=O)O)C(C)C)C(C)C (Isovaleryl-VV[Sta]A[Sta]-OH),inactive: 90.7%,–
O=C(O)C1=CC(O)C(O)[C@H](O)C1 (some centres undefined),inactive: 105%,–
